The text below walks through data of PMC8510580, “HspB8 prevents aberrant phase transitions of FUS by chaperoning its folded RNA-binding domain” (eLife, 2021).

Amino acid sequences for entries named in this document (tags omitted). A change or cut given only in a name is not applied to a line headed by its entry.
UniProt P35637: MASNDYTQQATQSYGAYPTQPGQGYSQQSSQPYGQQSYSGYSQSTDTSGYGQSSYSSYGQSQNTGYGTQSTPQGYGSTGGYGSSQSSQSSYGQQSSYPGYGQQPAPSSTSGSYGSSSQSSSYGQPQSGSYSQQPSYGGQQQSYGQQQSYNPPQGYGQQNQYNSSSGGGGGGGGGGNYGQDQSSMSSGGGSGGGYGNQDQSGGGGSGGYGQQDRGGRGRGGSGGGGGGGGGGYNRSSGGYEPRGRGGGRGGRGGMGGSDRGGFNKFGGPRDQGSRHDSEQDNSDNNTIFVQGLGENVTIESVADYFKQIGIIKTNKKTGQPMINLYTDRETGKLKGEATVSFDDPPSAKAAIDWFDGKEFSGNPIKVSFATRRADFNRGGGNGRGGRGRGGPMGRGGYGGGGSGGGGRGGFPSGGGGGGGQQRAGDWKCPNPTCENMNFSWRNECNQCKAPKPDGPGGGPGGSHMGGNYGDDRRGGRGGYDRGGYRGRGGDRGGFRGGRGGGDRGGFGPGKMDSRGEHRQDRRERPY

No constants are given. Whether binding was seen depends on the method and setting. Binding calls can cover weak binding; strength is not graded here.

The experiment concerns the target FUS-G156E-K9-GFP (FUSm_K9) (human) (UniProt P35637). The experiment can be described thus: cross-linking; XL-MS of FUSm (or FUSm_K9) mixed with the partner under condensate-inducing low salt (75 mM): low-salt mixture or dense phase separated by centrifugation; H12/D12 DSS, 30 min, 37°C; also 3 hr after formation and with an RNA oligonucleotide; both purified.

B1: HspB8-WT (natural protein, UniProt Q9UJY1 1-196, looked up)
chain: MADGQMPFSCHYPSRLRRDPFRDSPLSSRLLDDGFGMDPFPDDLTASWPDWALPRLSSAWPGTLRSGMVPRGPTATARFGVPAEGRTPPPFPGEPWKVCVNVHSFKPEELMVKTKDGYVEVSGKHEEKQQEGGIVSKNFTKKIQLPAEVDPVTVFASLSPEGLLIIEAPQVPPYSTFGESSFNNELPQDSQEVTCT
notes: small heat shock protein HspB8; IDR printed as AA1-71 and alpha-crystallin domain as AA72-196; The article's keywords name Human as organism; also called small heat shock protein HspB8; source: E. coli BL21 Codon RIL, purified (GST, PreScission cleavage, reverse GST, ResourceQ); not shown: GST, N-terminal, cleaved
Consider B1, for which the binding result was “binds”.
